Drawing on doi:10.1101/2020.02.18.954511, this text covers binding for 1 substance.

Protein sequences, listed by entry. Tags and fused reporters are not part of them. Residues count along the entry.
UniProt P02769, residues 25-607: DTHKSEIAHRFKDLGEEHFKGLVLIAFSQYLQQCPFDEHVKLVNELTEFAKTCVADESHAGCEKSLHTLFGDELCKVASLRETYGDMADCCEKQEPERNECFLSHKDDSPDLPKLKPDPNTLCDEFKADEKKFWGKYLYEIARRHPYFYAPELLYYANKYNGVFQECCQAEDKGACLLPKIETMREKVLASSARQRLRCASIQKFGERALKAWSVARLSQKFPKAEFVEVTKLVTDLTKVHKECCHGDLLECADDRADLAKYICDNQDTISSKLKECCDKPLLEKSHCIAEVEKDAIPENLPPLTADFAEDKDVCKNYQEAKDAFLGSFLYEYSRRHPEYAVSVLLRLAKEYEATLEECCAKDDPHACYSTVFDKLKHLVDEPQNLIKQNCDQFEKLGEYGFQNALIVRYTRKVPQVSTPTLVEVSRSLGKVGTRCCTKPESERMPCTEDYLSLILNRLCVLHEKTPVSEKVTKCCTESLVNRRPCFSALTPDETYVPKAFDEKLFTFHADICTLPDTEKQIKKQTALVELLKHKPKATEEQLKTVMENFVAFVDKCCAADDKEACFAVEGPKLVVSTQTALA

No constants are given. Whether binding was seen depends on the method and setting.

The target of this assay is T1, diol dehydratase PduCDE (Salmonella enterica) (UniProt P37450).
T1 sequence 1: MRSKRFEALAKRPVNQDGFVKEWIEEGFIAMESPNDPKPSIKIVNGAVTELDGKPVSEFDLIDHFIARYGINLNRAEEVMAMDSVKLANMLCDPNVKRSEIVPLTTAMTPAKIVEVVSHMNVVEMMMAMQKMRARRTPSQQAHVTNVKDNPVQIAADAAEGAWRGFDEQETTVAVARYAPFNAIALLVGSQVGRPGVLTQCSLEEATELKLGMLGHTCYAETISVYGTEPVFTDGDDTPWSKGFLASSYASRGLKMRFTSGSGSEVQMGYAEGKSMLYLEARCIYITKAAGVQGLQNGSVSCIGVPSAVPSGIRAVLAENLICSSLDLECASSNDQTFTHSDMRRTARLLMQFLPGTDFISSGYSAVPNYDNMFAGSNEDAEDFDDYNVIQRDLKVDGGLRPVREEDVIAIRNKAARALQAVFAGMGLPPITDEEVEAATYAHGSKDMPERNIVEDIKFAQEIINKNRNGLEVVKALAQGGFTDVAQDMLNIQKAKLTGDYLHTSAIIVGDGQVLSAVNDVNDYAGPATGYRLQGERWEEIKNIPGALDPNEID
T1 sequence 2: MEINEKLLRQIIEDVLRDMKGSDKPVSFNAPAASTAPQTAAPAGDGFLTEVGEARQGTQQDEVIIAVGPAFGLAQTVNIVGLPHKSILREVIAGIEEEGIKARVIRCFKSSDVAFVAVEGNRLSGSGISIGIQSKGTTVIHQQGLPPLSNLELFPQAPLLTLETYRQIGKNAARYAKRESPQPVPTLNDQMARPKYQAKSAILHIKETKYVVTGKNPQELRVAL
T1 sequence 3: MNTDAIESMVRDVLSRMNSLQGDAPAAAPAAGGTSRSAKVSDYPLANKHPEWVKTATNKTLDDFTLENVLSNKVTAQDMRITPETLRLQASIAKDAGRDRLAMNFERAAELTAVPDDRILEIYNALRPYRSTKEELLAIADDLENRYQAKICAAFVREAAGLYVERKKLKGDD
Put plainly: BLI. On the technique in general: In BLI a coated tip is dipped into the sample, and binding shifts an interference pattern.

Consider BSA (from UniProt P02769 25-607), for which the binding result is “no binding”.
